Data: PMC9613699
These are yes or no findings as the source states them, for the method shown. Binding seen in cells or lysates may run through a third protein. Some entries that bind do so weakly or less than the wild type. For part of these data: Where a sequence is shown, tags or fusion partners need not be part of it.

By UniProt entry, the sequences of proteins in these tests, tags left out. Residues count along the entry.
UniProt Q9NZQ7, residues 19-290: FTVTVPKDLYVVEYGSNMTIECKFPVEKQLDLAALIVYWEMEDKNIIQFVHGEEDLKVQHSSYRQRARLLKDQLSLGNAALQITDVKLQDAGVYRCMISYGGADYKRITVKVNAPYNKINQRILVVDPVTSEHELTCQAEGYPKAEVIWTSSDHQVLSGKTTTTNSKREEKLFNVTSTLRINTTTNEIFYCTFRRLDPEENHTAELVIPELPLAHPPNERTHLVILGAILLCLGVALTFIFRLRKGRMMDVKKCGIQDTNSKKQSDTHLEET

Experiments:
[1] = target: T1, Flag-B4GALT1 (beta-1,4-galactosyltransferase 1) (UniProt P15291); assay: co-IP; HEK293T lysates (50 mM Tris-HCl pH 7.4, 150 mM NaCl, 1 mM EDTA, 1% TritonX-100) incubated with anti-Flag M2 Affinity Gel at 4 C overnight; washed (50 mM Tris-HCl pH 7.5, 150 mM NaCl, 0.5% TritonX-100, 10% glycerol); eluate analysed by western blot
T1 sequence: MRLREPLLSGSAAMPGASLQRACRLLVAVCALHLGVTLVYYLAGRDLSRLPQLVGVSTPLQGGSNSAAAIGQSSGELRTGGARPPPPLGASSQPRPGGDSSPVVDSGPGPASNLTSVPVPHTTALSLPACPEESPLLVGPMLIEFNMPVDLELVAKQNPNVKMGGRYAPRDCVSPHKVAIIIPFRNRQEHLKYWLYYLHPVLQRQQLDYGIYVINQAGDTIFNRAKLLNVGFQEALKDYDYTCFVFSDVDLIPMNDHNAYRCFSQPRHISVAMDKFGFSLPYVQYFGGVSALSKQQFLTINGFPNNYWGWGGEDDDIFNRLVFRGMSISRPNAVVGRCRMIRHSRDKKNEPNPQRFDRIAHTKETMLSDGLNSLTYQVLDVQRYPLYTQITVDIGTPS

[2] = target: PD-L1-3×FLAG (programmed death ligand 1) (UniProt Q9NZQ7); assay: as above
[3] = target: PD-L1 (programmed death ligand 1), endogenous in TNBC cells (human (endogenous in HCC1937 and MDA-MB-231)) (UniProt Q9NZQ7); assay: proximity ligation; PLA in situ in HCC1937 and MDA-MB-231 cells, endogenous proteins

## PD-L1 (programmed death ligand 1), untagged, expressed from pCDH-PD-L1 (from UniProt Q9NZQ7 19-290)
[1]
  binding: binds

B1: beta-1,4-galactosyltransferase 1 (B4GALT1), endogenous in HEK293T (enzyme, UniProt P15291 1-398)
chain: MRLREPLLSGSAAMPGASLQRACRLLVAVCALHLGVTLVYYLAGRDLSRLPQLVGVSTPLQGGSNSAAAIGQSSGELRTGGARPPPPLGASSQPRPGGDSSPVVDSGPGPASNLTSVPVPHTTALSLPACPEESPLLVGPMLIEFNMPVDLELVAKQNPNVKMGGRYAPRDCVSPHKVAIIIPFRNRQEHLKYWLYYLHPVLQRQQLDYGIYVINQAGDTIFNRAKLLNVGFQEALKDYDYTCFVFSDVDLIPMNDHNAYRCFSQPRHISVAMDKFGFSLPYVQYFGGVSALSKQQFLTINGFPNNYWGWGGEDDDIFNRLVFRGMSISRPNAVVGRCRMIRHSRDKKNEPNPQRFDRIAHTKETMLSDGLNSLTYQVLDVQRYPLYTQITVDIGTPS
[2]
  binding: binds

B2: beta-1,4-galactosyltransferase 1 (B4GALT1), endogenous in TNBC cells (enzyme, UniProt P15291 1-398)
chain: MRLREPLLSGSAAMPGASLQRACRLLVAVCALHLGVTLVYYLAGRDLSRLPQLVGVSTPLQGGSNSAAAIGQSSGELRTGGARPPPPLGASSQPRPGGDSSPVVDSGPGPASNLTSVPVPHTTALSLPACPEESPLLVGPMLIEFNMPVDLELVAKQNPNVKMGGRYAPRDCVSPHKVAIIIPFRNRQEHLKYWLYYLHPVLQRQQLDYGIYVINQAGDTIFNRAKLLNVGFQEALKDYDYTCFVFSDVDLIPMNDHNAYRCFSQPRHISVAMDKFGFSLPYVQYFGGVSALSKQQFLTINGFPNNYWGWGGEDDDIFNRLVFRGMSISRPNAVVGRCRMIRHSRDKKNEPNPQRFDRIAHTKETMLSDGLNSLTYQVLDVQRYPLYTQITVDIGTPS
[3]
  binding: binds
